# In PubChem BioAssay AID504467 (National Center for Advancing Translational Sciences (NCATS), 2011):
# Screen size: about 330,000 compounds; about 7,700 (2.3%) were called active. Inconclusive means that the source gave no clear call. Such entries were picked first, then a sample of the others. The call rests on the fitted dose curve; in most records, active means well fitted inhibition curve with a large enough effect; inconclusive means small, poorly fitted or top-dose-only effect, or effect the other way; inactive means flat fitted curve, though single readings scatter. Potencies of inconclusive entries are doubtful fits and often do not repeat.
# Test: qHTS screen for small molecules that inhibit ELG1-dependent DNA repair in human embryonic kidney (HEK293T) cells expressing luciferase-tagged ELG1; further: nearly all actives have a fitted effect of over 55% in size
# Details: HEK293T ELG1-luciferase reporter, luminescence, 16 h, DNA damage induced by 5-fluorouridine; activity change, negative = inhibition: at 46.1 µM (top of the series)
# Outline: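 DMSO vehicle served as the neutral condition. Each well held 2,000 cells given 5-fluorouridine plus compound; after 16 hr at 37 °C/5% CO2, ONE-Glo was added and luciferase measured 30 min later.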
# On the % scale 0 is the no-effect control and ±100 the full control effect; potency means the concentration at half of the fitted maximal effect.
SMILES,Potency,"activity change, negative = inhibition"
O=C(COC(=O)c1c(F)cccc1Cl)NC1CCCCC1,"inconclusive: 11.6 µM [activator, partial curve]",
COCCn1nnnc1C(c1cc2cc(OC)ccc2[nH]c1=O)N1CCC(Cc2ccccc2)CC1 (stereo not given),"inconclusive: 18.4 µM [inhibitor, single point]",
CC(N=Cc1cc([N+](=O)[O-])ccc1O)c1ccccc1 (stereo not given),"inconclusive: 29.1 µM [inhibitor, single point]",
COCCN(CCOC)S(=O)(=O)c1ccc(C(=O)Nc2c(C)n(C)n(-c3ccccc3)c2=O)cc1,"inconclusive: 29.1 µM [inhibitor, single point]",
Nc1ccc(C(=O)N/N=C\C=C\c2cccc([N+](=O)[O-])c2)cc1,,inactive: -5.48%
O=C(O)c1ccc(OCc2cn3ccccc3n2)cc1,"inconclusive: 20.6 µM [activator, partial curve]",
Cc1ccc(NC(=O)CSc2nnc3ccc(-c4ccncc4)nn23)cc1,active: 5.8 µM,
Cn1c(Cl)nc2ccccc21,"inconclusive: 32.6 µM [activator, partial curve, poor fit]",
O=C(Cc1ccc(-n2c(=O)c3ccccc3n(Cc3ccccc3Cl)c2=O)cc1)NCC1CCCO1 (stereo not given),active: 9.2 µM,
O=C(Nc1ccc(Cl)cc1[N+](=O)[O-])c1ccc2c(c1)OCCO2,"inconclusive: 2.06 µM [activator, partial curve]",
O=C(Nc1ccc(S(=O)(=O)Nc2ncccn2)cc1)c1ccco1,"inconclusive: 23.1 µM [activator, partial curve]",
COc1cc(/C=C/C(=O)OCC(=O)Nc2oc(C)c3c(C)n[nH]c(=O)c23)ccc1OC(F)F,"inconclusive: 13 µM [inhibitor, single point]",
CC(=O)Oc1ccccc1-n1c(C)nc(=O)c(-c2ccccc2)c1C,"inconclusive: 0.058 µM [activator, partial curve, poor fit]",
Cc1ccc(C(=O)NCCNS(C)(=O)=O)cc1,,inactive: -0.0676%
COc1ccc(CCNC(=O)c2ccc(N(C)S(=O)(=O)c3ccc(C)cc3)cc2)cc1,"inconclusive: 29.1 µM [inhibitor, single point]",
COc1ccc(/C=C2\CC/C(=C\c3ccc(OC)cc3OC)C2=O)c(OC)c1,,inactive: 13.3%
CCCn1c(NC(=O)c2ccc(C)cc2)nc2ccccc21,"inconclusive: 16.4 µM [activator, single point]",
O=C(NCCC1=CCCCC1)c1ccc(=O)oc1,"inconclusive: 16.4 µM [activator, partial curve, poor fit]",
Cc1nc(C(=O)Nc2ccc(Cl)cc2Cl)nn1-c1cc(OC(C)C)c(Cl)cc1Cl,,inactive: 4.85%
CC(C)COCc1ccc(O)c2ncccc12,active: 20.6 µM,
CCC(C)Nc1nc(CN2CCOCC2)nc2sc3c(c12)CCC3 (stereo not given),"inconclusive: 7.31 µM [inhibitor, partial curve, poor fit]",
CCN1C(=O)[C@H]2[C@@H](c3ccc(-c4ccc(C(C)=O)cc4)cc3)N[C@@](C)(C(=O)OC)[C@H]2C1=O,"inconclusive: 23.1 µM [activator, single point]",
Cc1occc1C(=O)Nc1ccc(Br)cc1F,"inconclusive: 14.6 µM [activator, partial curve]",
CCN(CC)S(=O)(=O)c1cc(NC(=O)C(C)N2CCN(Cc3ccc4c(c3)OCO4)CC2)ccc1C (stereo not given),"inconclusive: 1.64 µM [inhibitor, full curve]",

# Single records, from the list above.
# Cc1occc1C(=O)Nc1ccc(Br)cc1F as listed: Potency: inconclusive: 14.6 µM [activator, partial curve]
# Cc1ccc(NC(=O)CSc2nnc3ccc(-c4ccncc4)nn23)cc1 as listed: Potency: active: 5.8 µM

# Following part:

SMILES,Potency,"activity change, negative = inhibition"
CCc1cc2cc(C(=O)Nc3ccccc3F)sc2s1,"inconclusive: 1.03 µM [activator, full curve]",
Cc1ccc(Nc2ncnc3c2cnn3C)cc1,"inconclusive: 16.4 µM [activator, single point]",
CC(=O)c1cc2c(cc1NC(=O)CCNC(=O)c1ccccc1Cl)OCO2,"inconclusive: 13 µM [inhibitor, partial curve, poor fit]",
Fc1ccccc1-c1cc2ncccc2cn1,"inconclusive: 16.4 µM [activator, partial curve]",
Cc1ccc2oc(C(=O)Nc3nonc3C)c(C)c2c1,"inconclusive: 10.3 µM [activator, partial curve]",
Cc1nn(Cc2ccc(Cl)c(Cl)c2)c(C)c1NC(=O)c1cn(-c2ccccc2)nc1-c1ccccc1,"inconclusive: 20.6 µM [inhibitor, partial curve]",
COc1ccc(C(CNC(=O)c2ccc(-c3ccccc3Cl)o2)N2CCOCC2)cc1 (stereo not given),,inactive: -28%
COc1cccc(NC(=S)Nc2ccc(Br)cc2Cl)c1,,inactive: 0.761%
NS(=O)(=O)c1ccc(CCNC(=O)c2ccc(OCC3CCCO3)cc2)cc1 (stereo not given),,inactive: 18.1%
CC(C)OC(=O)NC(Nc1ccccc1C(=O)O)(C(F)(F)F)C(F)(F)F,"inconclusive: 9.2 µM [inhibitor, partial curve, poor fit]",
COc1ccc(/C=C/C(=O)OC(C)CN2CCCCC2)cc1 (stereo not given),,inactive: 12.8%
CC(C)(C)c1ccc(C(=O)NCC(=O)N2CCCCCC2)cc1,"inconclusive: 20.6 µM [activator, single point]",
CCn1c(/C=C/c2ccccc2F)nc2ccccc2c1=O,"inconclusive: 25.9 µM [inhibitor, partial curve, poor fit]",
Cc1ccc(C(C)C)c(OCC(=O)NNC(=O)Cn2[nH]c(=O)c3ccccc3c2=O)c1,,inactive: 2.31%
O=C(NCCc1ccccc1)c1cnc2ccccn2c1=O,"inconclusive: 7.31 µM [activator, partial curve]",
CC(C)(C)C(=O)Nc1cccc(-c2nnc(-c3cccc(NC(=O)C(C)(C)C)c3)o2)c1,active: 4.61 µM,
Cc1ccnc(NC(=O)c2cccc(OC(F)F)c2)n1,"inconclusive: 13 µM [activator, partial curve]",
O=C(Cc1ccccc1)Nc1ccc(N2CCOCC2)cc1,"inconclusive: 20.6 µM [activator, partial curve]",
Cc1ccc(-c2cn3cccnc3n2)cc1,"inconclusive: 13 µM [activator, partial curve]",
O=C(NC1CCCC1)C(c1ccncc1)N(C(=O)Cc1cccs1)c1cccc(F)c1 (stereo not given),,inactive: -1.76%
Cc1cccc(OCC(=O)N(Cc2nnc(-c3ccccc3Cl)o2)C2CC2)c1,,inactive: -13.1%
Cc1ccc(NS(=O)(=O)c2cccc(C(=O)NCC(c3ccc(F)cc3)N3CCOCC3)c2)cc1 (stereo not given),"inconclusive: 32.6 µM [inhibitor, single point]",
CSc1ccc(/C=C/C(=O)c2ccc(NC(=O)C(C)C)cc2)cc1,,inactive: -5.11%
CCOc1ccc(S(=O)(=O)N2CCN(C(=O)CN3C(=O)NC4(CCCC4)C3=O)CC2)cc1,,inactive: 17.7%

# Of the compounds above, these have sulfur:
SMILES,Potency,"activity change, negative = inhibition"
COCCN(CCOC)S(=O)(=O)c1ccc(C(=O)Nc2c(C)n(C)n(-c3ccccc3)c2=O)cc1,"inconclusive: 29.1 µM [inhibitor, single point]",
Cc1ccc(NC(=O)CSc2nnc3ccc(-c4ccncc4)nn23)cc1,active: 5.8 µM,
O=C(Nc1ccc(S(=O)(=O)Nc2ncccn2)cc1)c1ccco1,"inconclusive: 23.1 µM [activator, partial curve]",
Cc1ccc(C(=O)NCCNS(C)(=O)=O)cc1,,inactive: -0.0676%
COc1ccc(CCNC(=O)c2ccc(N(C)S(=O)(=O)c3ccc(C)cc3)cc2)cc1,"inconclusive: 29.1 µM [inhibitor, single point]",
CCC(C)Nc1nc(CN2CCOCC2)nc2sc3c(c12)CCC3 (stereo not given),"inconclusive: 7.31 µM [inhibitor, partial curve, poor fit]",
CCN(CC)S(=O)(=O)c1cc(NC(=O)C(C)N2CCN(Cc3ccc4c(c3)OCO4)CC2)ccc1C (stereo not given),"inconclusive: 1.64 µM [inhibitor, full curve]",
CCc1cc2cc(C(=O)Nc3ccccc3F)sc2s1,"inconclusive: 1.03 µM [activator, full curve]",
COc1cccc(NC(=S)Nc2ccc(Br)cc2Cl)c1,,inactive: 0.761%
NS(=O)(=O)c1ccc(CCNC(=O)c2ccc(OCC3CCCO3)cc2)cc1 (stereo not given),,inactive: 18.1%
O=C(NC1CCCC1)C(c1ccncc1)N(C(=O)Cc1cccs1)c1cccc(F)c1 (stereo not given),,inactive: -1.76%
Cc1ccc(NS(=O)(=O)c2cccc(C(=O)NCC(c3ccc(F)cc3)N3CCOCC3)c2)cc1 (stereo not given),"inconclusive: 32.6 µM [inhibitor, single point]",
CSc1ccc(/C=C/C(=O)c2ccc(NC(=O)C(C)C)cc2)cc1,,inactive: -5.11%
CCOc1ccc(S(=O)(=O)N2CCN(C(=O)CN3C(=O)NC4(CCCC4)C3=O)CC2)cc1,,inactive: 17.7%

# More compounds

SMILES,Potency,"activity change, negative = inhibition"
CCOc1ccc(OCC)c(NC(=O)C2CCN(S(=O)(=O)c3cccc4nonc34)CC2)c1,"inconclusive: 18.4 µM [inhibitor, single point]",
O=C(CCc1nc2ccccc2c(=O)[nH]1)Nc1cccc(S(=O)(=O)N2CCCCC2)c1,,inactive: -21.4%
Cc1ccc(C(=O)NCC(=O)Nc2ccc(Cl)cc2)s1,,inactive: 0%
O=[N+]([O-])c1ccc(Cl)c(S(=O)(=O)Nc2ccc(-c3ccc(N4CCOCC4)nn3)cc2)c1,"inconclusive: 2.06 µM [activator, partial curve]",
COc1cc(OC)cc(C(=O)NNC(=S)NC(=O)c2cccnc2)c1,,inactive: -20.4%
COC(=O)Cc1c(O)ccn(CCc2c[nH]c3ccccc23)c1=O,"inconclusive: 32.6 µM [activator, partial curve, poor fit]",
COc1ccc(S(=O)(=O)N[C@@H](C)C(=O)OCC(=O)Nc2cc3oc4ccccc4c3cc2OC)cc1,"inconclusive: 18.4 µM [activator, partial curve]",
CSc1ccccc1-c1nc(-c2ccncc2)no1,"inconclusive: 14.6 µM [activator, partial curve, poor fit]",
Cc1cc(=O)oc2cc(OCC(=O)Nc3c(Cl)cccc3C(F)(F)F)ccc12,"inconclusive: 29.1 µM [activator, partial curve, poor fit]",
Cc1ccc(Nc2nc(C(=O)N3CCC(C(=O)NCCN4CCOCC4)CC3)cs2)cc1,"inconclusive: 16.4 µM [activator, partial curve, poor fit]",
Cc1cccc(C(=O)OCC(=O)c2c(N)n(CC(C)C)c(=O)n(C)c2=O)c1O,"inconclusive: 20.6 µM [inhibitor, partial curve]",
N#CC1=C(N)Oc2cc(N)ccc2C1C1CCCCC1 (stereo not given),,inactive: -11.5%
Oc1ccc(C2=NNC(c3ccc(O)cc3)=NN2)cc1,,inactive: 1.36%
COc1ccc(C(=O)NC(=S)Nc2ccc(S(N)(=O)=O)cc2)cc1,,inactive: 13.6%
O=C1Nc2ccc(Br)cc2C12NNc1ccccc1O2 (stereo not given),,inactive: 27.4%
CC1CCCCC1NC(=O)NC(=O)COC(=O)c1cncc(Br)c1 (stereo not given),"inconclusive: 20.6 µM [activator, partial curve, poor fit]",
NC(=O)CC(NC(=O)Cc1ccc(Cl)cc1)c1ccc(NCC2CC2)c([N+](=O)[O-])c1 (stereo not given),,inactive: -0.543%
CCN(CC)C(=O)c1ccc(-c2nnc(Nc3ccc(O)cc3)c3ccccc23)cc1,"inconclusive: 35.5 µM [inhibitor, single point]",
CCOC(=O)C1CCCN(C(=O)COC(=O)c2cccs2)C1 (stereo not given),"inconclusive: 14.6 µM [activator, partial curve]",
CCN(C[C@H]1N[C@@](CC)(C(=O)OC)[C@H]2C(=O)N(Cc3ccccc3)C(=O)[C@@H]12)C(=O)c1ccccc1,active: 20.6 µM,
Cc1ccc(NC(=S)Nc2ccc(OC(F)F)c(Cl)c2)cc1Cl,,inactive: -4.86%
COc1ccc(C2C3=C(CCCC3=O)Nc3nc(-c4cc(OC)c(OC)c(OC)c4)nn32)cc1OC (stereo not given),,inactive: -16.7%
